Percent effect of library compounds

By UniProt entry, the sequences of proteins in these tests, tags left out. Residues count along the entry.
UniProt Q8IDJ8, 1-583: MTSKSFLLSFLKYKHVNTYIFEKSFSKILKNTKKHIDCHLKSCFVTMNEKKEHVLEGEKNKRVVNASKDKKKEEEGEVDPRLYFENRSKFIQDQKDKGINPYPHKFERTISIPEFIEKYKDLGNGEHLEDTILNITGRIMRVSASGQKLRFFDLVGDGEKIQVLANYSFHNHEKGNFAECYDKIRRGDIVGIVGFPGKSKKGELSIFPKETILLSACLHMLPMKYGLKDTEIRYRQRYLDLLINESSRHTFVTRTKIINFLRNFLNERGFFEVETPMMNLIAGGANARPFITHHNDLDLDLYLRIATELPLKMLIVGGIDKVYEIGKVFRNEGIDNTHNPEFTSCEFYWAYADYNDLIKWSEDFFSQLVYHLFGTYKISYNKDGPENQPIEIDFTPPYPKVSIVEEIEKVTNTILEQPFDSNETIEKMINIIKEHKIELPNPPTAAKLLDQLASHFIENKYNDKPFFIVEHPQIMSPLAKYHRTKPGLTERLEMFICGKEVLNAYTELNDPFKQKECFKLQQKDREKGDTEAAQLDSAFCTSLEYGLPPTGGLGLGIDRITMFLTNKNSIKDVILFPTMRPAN

Measurements from “University of Dundee, Small-Polar-MMV Screening Library” (2021), ChEMBL document CHEMBL3988442.

Results are given as percent effect.
The controls that fix the scale are not given in the record; negative values are as filed.
The compounds are a random part of those screened.
A dash means the value is not listed here; it may have been measured.

T. brucei: 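Whole-parasite assay of Trypanosoma brucei over 72 hours; the read-out is not stated. Tested at 30 µM. Direction is inferred from retests: higher values go with stronger inhibition. Values scatter widely below zero; nearly all retest evidence comes from the higher of the two concentrations used. Of about 64,000 compounds tested this way, about 940 (1.5%) reached 50% or more in at least one test.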
PfKRS1: 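Lysine-tRNA ligase, Plasmodium falciparum 3D7 (UniProt Q8IDJ8). Enzyme assay of the cytosolic lysyl-tRNA synthetase in 384-well plates, read by luminescence. Concentration: 30 µM. Direction is inferred from only a few compounds that gave an IC50; most scored high, so higher reads as stronger inhibition. About 69,000 compounds were tested under these conditions; 0.071% (about 49) showed 50% or more at least once.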

compound | T. brucei | PfKRS1
Cc1ccc(NS(=O)(=O)c2cnn(Cc3ccccc3)c2)c(C(=O)O)c1 | -8.955% | 1.787%
O=C(NC[C@H]1Cn2c(-c3ccccc3)cnc2CO1)C1CC1 | -5.589% | 3.253%
O=C(NCCCN1CCc2ccccc2C1)c1cccnc1O | -6.805% | 6.687%
CN(Cc1nc(C2CC2)no1)C(=O)c1cccc(CC2CCNCC2)c1 | -65.34% | 1.548%
CCN(CC)Cc1ccc(C(=O)N2CCCC2c2cnn(C)c2)o1 (stereo unspecified) | - | -2.573%
COCCOC(=O)N1CCC(c2nccn2CC2CC2)CC1 | -26.07% | 1.287%
CN1CCO[C@@H]2CN(S(=O)(=O)c3ccccc3)CC[C@@H]2C1 | - | 6.525%
Cc1csc(CNC(=O)NCc2ccc3c(c2)OCCO3)n1 | 18.73% | 17.13%
CC(C)c1noc(-c2ccc(N(C)C3CCOCC3)nc2)n1 | -24.86% | 1.558%
CCn1ccc(NS(=O)(=O)c2cccc(CSC)c2)n1 | - | 3.667%
CC[C@@H]1N(Cc2ccc(F)cc2)CCC[C@]12CCC(=O)N2CCOC.O=C(O)C(F)(F)F | -80.81% | -
Cn1c2c(ccc1=O)CC(NC(=O)Cc1ccsc1)CC2 (stereo unspecified) | - | 4.721%
CCn1nc(C)cc1NC(=O)CCn1nc(C)c(Br)c1C | -12.18% | 6.063%
Cc1cccc(CNC(=O)Nc2ccc3c(c2)CCCC(=O)N3)c1 | -30.24% | 5.27%
Cc1sc2c(C3CCNCC3)nc(Nc3cccc(F)c3)n2c1C.Cl | 99.26% | -
O=C(CC1CC1)N1CCC2(CC1)C(=O)NCCN2Cc1ccccc1 | -14.43% | 4.015%
Cc1noc(C2CCCN(Cn3cc(Br)cn3)C2)n1 (stereo unspecified) | 26.88% | 2.546%
NC(=O)CCC1CCCN(c2ccnc3cc(F)ccc23)C1 (stereo unspecified) | -7.534% | -4.953%
COc1ccc([C@@H]2CN(c3cc(C(=O)O)ccn3)C[C@H]2N(C)C)cc1 | -13.54% | -1.466%
Cc1noc(C)c1CC(=O)NCCc1cccs1 | -47.61% | -1.095%
CCc1nc(CNC2CCCCNC2=O)cs1 (stereo unspecified) | -10.09% | 1.391%
COCCCOC1CN(C(=O)c2[nH]nc3c2CCCC3)C1 | -33.16% | -0.3347%
O=C(O)C(F)(F)F.[H][C@@]12COC[C@]1(CNC(=O)c1ccsc1)CN(Cc1cc(C)on1)C2 | 42.89% | -
CCC(CC)CN1CCN(CC(=O)Nc2ccc3nsnc3c2)CC1 | -1.613% | 1.163%
Cc1cnc(C(=O)N2CCc3ncnc(-c4cnn(C)c4)c3CC2)cn1 | -27.17% | 8.566%
CCN1CC(CN(C)Cc2nc(-c3ccc(C)o3)oc2C)CC1=O (stereo unspecified) | -16.21% | -5.187%
Cn1ccc(C(=O)NCc2cccc(N3CCCCC3=O)c2)cc1=O | 9.093% | 8.562%
Cc1cc(C)nc(N2CCC(c3cccc(CCC(=O)O)n3)CC2)n1 | -10.92% | 0.5201%
COCCCNC(=O)Nc1cc(-c2ccccc2C)nn1CCO | -53.8% | -0.02525%
COCCCN(CCOC)C(=O)Nc1ccc(C)cc1C | -26.97% | -6.512%
CCc1cnc(CN2CCOC(c3nc(C)n[nH]3)C2)o1 (stereo unspecified) | 1.621% | 5.081%
CN1CCCc2c1nc1c(c2N)CCC1 | 5.645% | -1.3%
CC(C#N)CN(C)C(=O)CCNC(=O)OCC(F)(F)F (stereo unspecified) | -30.86% | 2.075%
O=C(NCc1ccccn1)c1cc2n(n1)CCNC2 | -33.46% | 2.563%
O=C(O)C(F)(F)F.O=C(O)C(F)(F)F.c1cncc(OCC2CN(Cc3ccsc3)Cc3nccn3C2)c1 (stereo unspecified) | 27.23% | -
COc1ccc(CCN2C(=O)O[C@@H]3CN(C4CCOCC4)C[C@@H]32)cc1 | - | -1.877%
O=c1c2ccccc2nc2n1C(CSc1ccc(F)cc1)CN2 (stereo unspecified) | - | 1.374%
CCCC(=O)NC(C(=O)OC)c1cc(F)ccc1F (stereo unspecified) | - | 1.189%
c1cnnc(NCC2CN(CCN3CCCCC3)CCO2)c1 (stereo unspecified) | 13.41% | 4%
O=C(NCCSc1ccccc1)[C@H]1CNC[C@@H](C(=O)N2CCOCC2)C1 | 38.38% | -2.1%
COc1cccc(C2CC(=O)Nc3nc(N4CCCCC4)sc32)c1OC (stereo unspecified) | -1.406% | 84.39%
O=C(NCc1cccnc1-n1cncn1)c1cc(Cl)ccn1 | -36.03% | -1.598%
CCn1c(C)nnc1SCCNc1cc(N2CCOCC2)ncn1 | -0.1564% | 2.263%
Cn1nc(Cn2ccnc2)c2c1CN(c1nccs1)C2.O=C(O)C(F)(F)F.O=C(O)C(F)(F)F | -40.28% | -
CC(C)OC(=O)N1C[C@H]2CC[C@@H]1CN(C(=O)c1ccccc1)C2 | - | 4.437%
CCCS(=O)(=O)CC(=O)NC(C)c1cccc(-n2cccn2)c1 (stereo unspecified) | -65.59% | 2.76%
Cc1nc(C)n(CC2CN(CCC(=O)N3CCCCC3)CCO2)n1 (stereo unspecified) | - | 1.924%
O=C(NC1CCN(C2CC2)CC1)c1[nH]nc(C2CC2)c1Cl | 14.75% | -0.6387%
CS(=O)(=O)N1CC2(CCN(CC3CC3)C2)Cc2ccccc21 (stereo unspecified) | - | 0.07003%
CCc1cnc(N2C[C@H]3CN(Cc4ccc(OC)cc4)C(=O)[C@H]3C2)nc1 | - | 2.665%
[H][C@@]12CN(c3nc(C)ccc3C(N)=O)C[C@]1([H])N(C1CCCC1)C(=O)O2 | -36.93% | -
O=C1NCCCCC1NC(=O)C1(Oc2ccc(Cl)cc2)CCNCC1 (stereo unspecified) | -34.63% | 2.352%
CC(C)NC(=O)C1CN(C(=O)N(C)C)CC12CCOCC2 (stereo unspecified) | -84.84% | 3.857%

Repeated from the top, 4 entries:

compound,T. brucei,PfKRS1
Cc1ccc(NS(=O)(=O)c2cnn(Cc3ccccc3)c2)c(C(=O)O)c1,-8.955%,1.787%
O=C(NC[C@H]1Cn2c(-c3ccccc3)cnc2CO1)C1CC1,-5.589%,3.253%
O=C(NCCCN1CCc2ccccc2C1)c1cccnc1O,-6.805%,6.687%
CN(Cc1nc(C2CC2)no1)C(=O)c1cccc(CC2CCNCC2)c1,-65.34%,1.548%